Measured values: US20200247886A1
Results are given in words; binding and its absence hold for the method and conditions named. Some binding calls cover weakened binding; strength is not graded here. Values belong to the binder of their own block, whether it stands above or below them.

Sequences of proteins named here, by UniProt entry; tags and fusion partners are left off. A change or cut given only in a name is not applied to a line headed by its entry.
UniProt Q08722: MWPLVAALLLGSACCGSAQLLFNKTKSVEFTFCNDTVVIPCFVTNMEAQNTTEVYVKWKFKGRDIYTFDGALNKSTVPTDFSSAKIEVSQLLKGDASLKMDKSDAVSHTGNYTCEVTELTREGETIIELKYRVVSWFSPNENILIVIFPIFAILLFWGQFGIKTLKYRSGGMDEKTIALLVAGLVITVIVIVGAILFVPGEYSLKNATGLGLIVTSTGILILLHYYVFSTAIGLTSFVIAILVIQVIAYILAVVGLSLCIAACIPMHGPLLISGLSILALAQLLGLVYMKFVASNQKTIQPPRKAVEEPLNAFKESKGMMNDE

Legend:
[1] = target: human CD47 expressed on cells (CD47 expressing CHO cells, Jurkat, HL60, DLD1, Raji) (human) (UniProt Q08722); experiment: flow cytometry SIRP-alpha blocking assay on Raji cells, MFI
[2] = target: human CD47 expressed on cells (CD47 expressing CHO cells, Jurkat, HL60, DLD1, Raji) (human) (UniProt Q08722); experiment: IC50 (nM) as grade, SIRP-alpha blocking on Raji cells; legend +: <0.6 nM
[3] = target: CD47 on monkey RBC (Macaca fascicularis); experiment: flow cytometry on cynomolgus monkey red blood cells, MFI
[4] = target: human CD47 expressed on cells (CD47 expressing CHO cells, Jurkat, HL60, DLD1, Raji) (human) (UniProt Q08722); experiment: flow cytometry on human platelets, donor 1, MFI
[5] = target: human CD47 expressed on cells (CD47 expressing CHO cells, Jurkat, HL60, DLD1, Raji) (human) (UniProt Q08722); experiment: flow cytometry on human red blood cells, donor 2, MFI
[6] = target: human CD47 expressed on cells (CD47 expressing CHO cells, Jurkat, HL60, DLD1, Raji) (human) (UniProt Q08722); experiment: flow cytometry on human platelets, donor 2, MFI
[7] = target: human CD47 expressed on cells (CD47 expressing CHO cells, Jurkat, HL60, DLD1, Raji) (human) (UniProt Q08722); experiment: flow cytometry on human red blood cells, donor 1, MFI

- binding [1]: binds
- binding [2]: binds
B1: H-ABU 37 (antibody, V domains shown)
VH: QVQLVQSGAEVKKPGASVKVSCKASGYTFTNYWMQWVRQAPGQGLEWMGMIDPSDSESRLNQKFKDRVTMTRDTSTSTVYMELSSLRSEDTAVYYCARRGSPMITSFAYWGQGTLVTVSS
VL: DVQITQSPSSLSASVGDRVTITCRASKNIGKYLAWFQQKPGKTNKLLIYSGSTLQSGIPSRFSGSGSGTDFTLTISSLQPEDFATYYCQQHNEYPYTFGGGTKVEIK

- binding [4]: binds
- binding [5]: binds
- binding [6]: binds
- binding [7]: binds
B5: H-ABU44 (antibody, V domains shown)
VH: QVQLVQSGAEVKKPGASVKVSCKASGYSFTNYHIHWVRQAPGQRLEWIGWIYPGSGNTKYNEKFKGRATLTADTSASTAYMELSSLRSEDTAVYYCARYDYDLYLHSWGQGTLVTVSS
VL: DIQITQSPSSVSASVGDRVTITCHASQNINVWLSWYQQKPGKAPKLLIYKASNLHTGVPSRFSGSGSGTGFTLTISSLQPEDFATYYCQQGQSYPLTFGQGTKLEIK

Further lines, the binder ahead of its results:

B2: H-ABU42 (antibody, V domains shown)
VH: QVQLVQSGAEVKKPGASVKVSCKASGYTFTNYWMQWVRQAPGQGLEWMGMIDPSDSESRLNQKFKDRVTMTRDTSTSTVYMELSSLRSEDTAVYYCARRGSPMITSFAYWGQGTLVTVSS
VL: DVQITQSPSSLSASVGDRVTITCRASKNIGKYLAWFQQKPGKAPKSLIYSGSTLQSGIPSRFSGSGSGTDFTLTISSLQPEDFATYYCQQHNEYPYTFGGGTKVEIK
- binding [1]: binds

B3: ABU2 (antibody, V domains shown)
VH: QVQLQQPGAELVRPGASVKLSCKASGYTFTNYWMNWFKQRPEQGLEWIGRIDPYDSETLYNQKFKDKAILTVDKSSSTAYMQLSSLTSEDSAVYYCAGGGKGGFGYWGQGTLVTVSA
VL: DVLMTQTPLSLPVSLGDQASISCRSSQSIVYSNGNTYLEWYLQKPGQSPKLLIYKVSNRFSGVPDRFSGSGSGTDFTLKISRVEAEDLGVYYCFQGSHVPYTFGGGTKLEIK
- binding [3]: binds

B4: ABU5 (antibody, V domains shown)
VH: QVQLQQPGAELVKPGASVKMSCKASGYTFTNYWIAWVKRRPGQGLEWIGDFYPGNTSTNYNEKFKTKATLTIDTSSSTAYMQLSSLTSEDSAVYYCARRGRGGSSYWGQGTTLTVSS
VL: DVLMTQTPLSLPVSLGEQASISCRSSQSIVHSNGNTYLEWYLQKPGQSPKLLIYRVANRFSGVPDRFSGSGSGTDFTLKISRVEAEDLGVYYCFQGSHVPWTFGGGTKLEIK
- binding [3]: binds

B6: ABU7 (antibody, V domains shown)
VH: EVQLQQSGPELVKPGASVKISCKASGYSFTGYYMNWVKQSPEKSLEWIGEINPSTGGTTYNQKFKAKATLTVDKSSSTAYMQLKSLTFEDSAVYYCAIYDGYEGFAYWGQGTLVTVSA
VL: DIKMTQSPSSMYASLGERVTITCKASQDIKSYLSWYQQKPWKSPKTLIYYATSLADGVPSRFSGSGSGQHYSLTISSLESDDTATYYCLQHGESPFTFGSGTKLEIK
- binding [3]: binds

B7: ABU4 (antibody, V domains shown)
VH: QVQLQQSGPQLVRPGASVKISCKTSGYSFTNYWMQWVKQRPGQGLEWIGMIDPSDSESRLNQKFKDKATLTVDKSSSTAYMQLSSPTFEDSAVYYCARRGSPMITSFAYWGQGTLVTVSA
VL: DVQITQSPSFLAASPGETITINCRASKNIGKYLAWFQEKPGKTNKLLIYSGSTLQSGIPSRFSGSGSGTDFTLTISSLEPEDFAIYYCQQHNEYPYTFGGGTKLEIK
- binding [3]: binds

B8: ABU3 (antibody, V domains shown)
VH: EVQLQQSGAELVKPGASVKLSCTASGFTIKDTYMHWVKQRPEQGLEWIGRIDPAKDNTKYDPKFQGKATITLDTSSNIAYLQLSSLTSEDTAVYFCARGHYGSSYVVYWGQGTLVTVSA
VL: NILMTQSPKSMSMSVGERVTLSCKASENVGTYVSWYQQKPDQSPKLLIYGASNRYTGVPDRFTGSGSATDFTLTISSVQAEDLADYHCGQSYSYPLTFGAGTKLELK
- binding [3]: binds
